Earlier results, collected in patent US10946093B2, “Methods of treating cancer using PD-1 axis binding antagonists and MEK inhibitors” (Genentech, Inc., priority 2014, dated 2021).
Some entries share one result that the patent states for a list of compounds.

Tested on: MEK
Details: assay of Example 8b; see page 49 in WO 2009/085983 A1; cited from earlier work

Structure (SMILES)	IC50 [µM]
CNC(=O)c1ncc2cncn2c1Nc1ccc(I)cc1F [(III)-21, 5-(2-Fluoro-4-iodophenylamino)-N-methylimidazo[1,5-a]pyrazine-6-carboxamide]	< 10
O=C(NOCC1CC1)c1ncc2cncn2c1Nc1ccc(Br)cc1F [(III)-25, 5-(4-Bromo-2-fluorophenylamino)-N-(cyclopropyl-methoxy)imidazo[1,5-a]pyrazine-6-carboxamide]	< 10
